Assay results from PMC9156758.
These are yes or no findings as the source states them, for the method shown. Values belong to the binder of their own block, whether it stands above or below them.

Tests used:
[1] = biological target: A2ML1 in human skin extract (human (endogenous in skin)) (UniProt A8K2U0); assay: native gel or EMSA; human skin extract (0.1% NP40) run on native pore-limited PAGE (TBE, 10–20% gradient); lane cut into 10 slices, in-gel digestion and LC-MS/MS
[2] = biological target: Human alpha-2 macroglobulin-like 1 (A2ML1), recombinant wild type, native (human) (UniProt A8K2U0); assay: SEC; calibrated analytical SEC on Superdex 200 Increase 10/300 GL in HBS; 50 µg A2ML1, 20 µg native A2ML1t and A2ML1-CC; both purified

B1: A2ML1 in human skin extract (protein, UniProt A8K2U0 18-1454)
chain: EELPNYLVTLPARLNFPSVQKVCLDLSPGYSDVKFTVTLETKDKTQKLLEYSGLKKRHLHCISFLVPPPAGGTEEVATIRVSGVGNNISFEEKKKVLIQRQGNGTFVQTDKPLYTPGQQVYFRIVTMDSNFVPVNDKYSMVELQDPNSNRIAQWLEVVPEQGIVDLSFQLAPEAMLGTYTVAVAEGKTFGTFSVEEYVLPKFKVEVVEPKELSTVQESFLVKICCRYTYGKPMLGAVQVSVCQKANTYWYREVEREQLPDKCRNLSGQTDKTGCFSAPVDMATFDLIGYAYSHQINIVATVVEEGTGVEANATQNIYISPQMGSMTFEDTSNFYHPNFPFSGKIRVRGHDDSFLKNHLVFLVIYGTNGTFNQTLVTDNNGLAPFTLETSGWNGTDVSLEGKFQMEDLVYNPEQVPRYYQNAYLHLRPFYSTTRSFLGIHRLNGPLKCGQPQEVLVDYYIDPADASPDQEISFSYYLIGKGSLVMEGQKHLNSKKKGLKASFSLSLTFTSRLAPDPSLVIYAIFPSGGVVADKIQFSVEMCFDNQVSLGFSPSQQLPGAEVELQLQAAPGSLCALRAVDESVLLLRPDRELSNRSVYGMFPFWYGHYPYQVAEYDQCPVSGPWDFPQPLIDPMPQGHSSQRSIIWRPSFSEGTDLFSFFRDVGLKILSNAKIKKPVDCSHRSPEYSTAMGAGGGHPEAFESSTPLHQAEDSQVRQYFPETWLWDLFPIGNSGKEAVHVTVPDAITEWKAMSFCTSQSRGFGLSPTVGLTAFKPFFVDLTLPYSVVRGESFRLTATIFNYLKDCIRVQTDLAKSHEYQLESWADSQTSSCLCADDAKTHHWNITAVKLGHINFTISTKILDSNEPCGGQKGFVPQKGRSDTLIKPVLVKPEGVLVEKTHSSLLCPKGKVASESVSLELPVDIVPDSTKAYVTVLGDIMGTALQNLDGLVQMPSGCGEQNMVLFAPIIYVLQYLEKAGLLTEEIRSRAVGFLEIGYQKELMYKHSNGSYSAFGERDGNGNTWLTAFVTKCFGQAQKFIFIDPKNIQDALKWMAGNQLPSGCYANVGNLLHTAMKGGVDDEVSLTAYVTAALLEMGKDVDDPMVSQGLRCLKNSATSTTNLYTQALLAYIFSLAGEMDIRNILLKQLDQQAIISGESIYWSQKPTPSSNASPWSEPAAVDVELTAYALLAQLTKPSLTQKEIAKATSIVAWLAKQHNAYGGFSSTQDTVVALQALAKYATTAYMPSEEINLVVKSTENFQRTFNIQSVNRLVFQQDTLPNVPGMYTLEASGQGCVYVQTVLRYNILPPTNMKTFSLSVEIGKARCEQPTSPRSLTLTIHTSYVGSRSSSNMAIVEVKMLSGFSPMEGTNQLLLQQPLVKKVEFGTDTLNIYLDELIKNTQTYTFTISQSVLVTNLKPATIKVYDYYLPDEQATIQYSDPCE
binding [1]: no binding

binding [2]: no binding
B2: Human alpha-2 macroglobulin-like 1 (A2ML1), recombinant wild type, native (protein, UniProt A8K2U0 18-1454)
chain: B1 chain
modifications: internal thioester Cys970-Gln973; N-glycans (Asn120, Asn328, Asn857 named)
